Source: publication doi:10.1101/2023.06.01.543273
No constants are given. Whether binding was seen depends on the method and setting. For some assays here: Binding seen in cells or lysates may run through a third protein. For some assays here: Binding calls can cover weak binding; strength is not graded here.

T1: GvpA-based gas vesicles, shell of the major shell protein GvpA from Anabaena flos-aquae (Anabaena flos-aquae) (UniProt P10397)
T1 sequence: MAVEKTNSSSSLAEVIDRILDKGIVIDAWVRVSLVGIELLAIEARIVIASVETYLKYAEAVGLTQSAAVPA


Key:
[1] = target: T1, GvpA-based gas vesicles, shell of the major shell protein GvpA from Anabaena flos-aquae (Anabaena flos-aquae); assay: condition: GvpU at 0.5 mg/mL added 1:5 v/v to GVs at OD500 = 0.5
[2] = target: GvpB-based gas vesicles (Mega GVs), shell of the major shell protein GvpB (Bacillus megaterium); assay: co-sedimentation

Molecule	binding [1]	binding [2]
GvpU::6xHisTag (Bacillus megaterium)	no binding	
GvpC, minor shell protein from A. flos-aquae (protein, UniProt P09413 1-193) MISLMAKIRQEHQSIAEKVAELSLETREFLSVTTAKRQEQAEKQAQELQAFYKDLQETSQQFLSETAQARIAQAEKQAQELLAFHKELQETSQQFLSATAQARIAQAEKQAQELLAFYQEVRETSQQFLSATAQARIAQAEKQAQELLAFHKELQETSQQFLSATADARTAQAKEQKESLLKFRQDLFVSIFG		binds
